In US12180255B2, “Compositions and methods for derepressing RE1 silencing transcription factor target genes” (Alcamena Stem Cell Therapeutics, LLC, priority 2019, dated 2024):
Part of at least one peptide drawing is inferred or uncertain, most often the ends. Where a SMILES comes first, the peptide text is derived from it.

Columns and labels:
REST protein = REST protein levels by Western blot in HEK293 cells; type: cell-based, human; settings: 100 nM; HEK293 with exogenously expressed REST; vs vehicle
HEK 293 cells = experiment: BDNF mRNA by qPCR in HEK 293 cells; type: cell-based; settings: 100 nM, 24 h

`CC(C)C[C@H](NC(=O)[C@H](CC(=O)O)NC(=O)[C@H](CCC(=O)O)NC(=O)[C@@H](NC(=O)[C@H](CCCCN)NC(=O)[C@H](CC(=O)O)NC(=O)[C@H](CC(=O)O)NC(=O)[C@H](CC(=O)O)NC(=O)[C@H](CC(=O)O)NC(=O)[C@H](CCCCN)NC(=O)[C@H](Cc1ccc(O)cc1)NC(=O)[C@H](CC(=O)O)NC(=O)[C@H](CCCCN)NC(=O)[C@H](CCC(N)=O)NC(=O)[C@H](C)NC(=O)[C@@H](N)CS)[C@@H](C)O)C(=O)N[C@@H](CCC(=O)O)C(=O)N1CCC[C@H]1C(=O)N1CCC[C@H]1C(=O)N[C@@H](CCC(=O)O)C(=O)N1CCC[C@H]1C(=O)N1CCC[C@H]1C(=O)N[C@@H](CC(C)C)C(=O)N1CCC[C@H]1C(=O)N[C@@H](CCCCN)C(=O)N[C@@H](CCC(=O)O)C(=O)N[C@@H](CC(N)=O)C(=O)NCC(=O)N[C@@H](CCCNC(=N)N)C(=O)N[C@@H](CCCCN)C(=O)N[C@@H](CCCCN)C(=O)N[C@@H](CCCNC(=N)N)C(=O)N[C@@H](CCCNC(=N)N)C(=O)N[C@@H](CCC(N)=O)C(=O)N[C@@H](CCCNC(=N)N)C(=O)N[C@@H](CCCNC(=N)N)C(=O)N[C@@H](CCCNC(=N)N)C(=O)NCC(=O)O` [SEQ ID NO: 4] (H-CAQKDYKDDDDKTEDLEPPEPPLPKENGRKKRRQRRRG-OH; N-terminus and C-terminus assumed) was tested, and the “decrease of REST protein levels” value (REST protein) was 58% and the “Increase, BDNF mRNA” value (HEK 293 cells) was 2.4x.
